PubChem BioAssay AID1508597, Cure First – 2020
Test: 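Survival screen with siRNA in ovarian cancer cells derived from patients, with or without rucaparib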 (primary screen). Cells: human ovarian carcinoma lines grown from tumours: OCI-P5x (papillary serous) and OCI-C5x (clear cell). Reagents: siRNA pool against human genes, 1.25 pmol siRNA per well. Time to read-out: 72 h or 96 h, depending on the cell culture. Conditions: rucaparib 20 µM (about IC30) or vehicle, present until read-out. Measured: 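Luminescent ATP-based viability assay read 72 or 96 h after transfection, depending on culture, given as normalised percent viability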. Direction: viability, normalised: higher = more viable cells remaining. Active means: 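a well counts as a hit if its normalised viability is under 80 percent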. Calls: active = viability under 80%; inactive = viability 80% or more.
The deposit covers about 2,100 reagents; this is a random part of them. 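Calls flag viability under 80% in either arm, not effects specific to rucaparib; the reference for percent is not stated.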 Unmarked entries are inactive. The record does not give: the 100% reference.

viability, normalised (%) | target | rucaparib or vehicle | cell line | technical replicate
37.7 (active) | PSMC2 | Rucaparib | OCI-C5x (clear cell) | 1
52.7 (active) | PSMC2 | Rucaparib | OCI-C5x (clear cell) | 2
51.4 (active) | PSMC2 | Rucaparib | OCI-C5x (clear cell) | 3
31.9 (active) | PSMC2 | Rucaparib | OCI-P5x (serous) | 1
38.3 (active) | PSMC2 | Rucaparib | OCI-P5x (serous) | 2
41.7 (active) | PSMC2 | Rucaparib | OCI-P5x (serous) | 3
33.7 (active) | PSMC2 | Vehicle | OCI-C5x (clear cell) | 1
29.1 (active) | PSMC2 | Vehicle | OCI-C5x (clear cell) | 2
24.7 (active) | PSMC2 | Vehicle | OCI-C5x (clear cell) | 3
41.3 (active) | PSMC2 | Vehicle | OCI-P5x (serous) | 1
37.9 (active) | PSMC2 | Vehicle | OCI-P5x (serous) | 2
50.1 (active) | PSMC2 | Vehicle | OCI-P5x (serous) | 3
47.5 (active) | ALK | Rucaparib | OCI-C5x (clear cell) | 1
46.6 (active) | ALK | Rucaparib | OCI-C5x (clear cell) | 2
55 (active) | ALK | Rucaparib | OCI-C5x (clear cell) | 3
120 | ALK | Rucaparib | OCI-P5x (serous) | 1
135 | ALK | Rucaparib | OCI-P5x (serous) | 2
124 | ALK | Rucaparib | OCI-P5x (serous) | 3
55.2 (active) | ALK | Vehicle | OCI-C5x (clear cell) | 1
46.8 (active) | ALK | Vehicle | OCI-C5x (clear cell) | 2
55.1 (active) | ALK | Vehicle | OCI-C5x (clear cell) | 3
91 | ALK | Vehicle | OCI-P5x (serous) | 1
90.6 | ALK | Vehicle | OCI-P5x (serous) | 2
82.8 | ALK | Vehicle | OCI-P5x (serous) | 3
48.4 (active) | HGF | Rucaparib | OCI-C5x (clear cell) | 1
45.5 (active) | HGF | Rucaparib | OCI-C5x (clear cell) | 2
48.3 (active) | HGF | Rucaparib | OCI-C5x (clear cell) | 3
76.1 (active) | HGF | Rucaparib | OCI-P5x (serous) | 1
58 (active) | HGF | Rucaparib | OCI-P5x (serous) | 2
55.5 (active) | HGF | Rucaparib | OCI-P5x (serous) | 3
47.2 (active) | HGF | Vehicle | OCI-C5x (clear cell) | 1
67.3 (active) | HGF | Vehicle | OCI-C5x (clear cell) | 2
69.2 (active) | HGF | Vehicle | OCI-C5x (clear cell) | 3
71.3 (active) | HGF | Vehicle | OCI-P5x (serous) | 1
72.5 (active) | HGF | Vehicle | OCI-P5x (serous) | 2
81.5 | HGF | Vehicle | OCI-P5x (serous) | 3
51.2 (active) | FOXS1 | Rucaparib | OCI-C5x (clear cell) | 1
48.3 (active) | FOXS1 | Rucaparib | OCI-C5x (clear cell) | 2
43.9 (active) | FOXS1 | Rucaparib | OCI-C5x (clear cell) | 3
68.5 (active) | FOXS1 | Rucaparib | OCI-P5x (serous) | 1
79.4 (active) | FOXS1 | Rucaparib | OCI-P5x (serous) | 2
86.6 | FOXS1 | Rucaparib | OCI-P5x (serous) | 3
54.9 (active) | FOXS1 | Vehicle | OCI-C5x (clear cell) | 1
57.5 (active) | FOXS1 | Vehicle | OCI-C5x (clear cell) | 2
57.4 (active) | FOXS1 | Vehicle | OCI-C5x (clear cell) | 3
82.7 | FOXS1 | Vehicle | OCI-P5x (serous) | 1
86.8 | FOXS1 | Vehicle | OCI-P5x (serous) | 2
83.7 | FOXS1 | Vehicle | OCI-P5x (serous) | 3
26.7 (active) | TTF1 | Rucaparib | OCI-C5x (clear cell) | 1
36.2 (active) | TTF1 | Rucaparib | OCI-C5x (clear cell) | 2
20.8 (active) | TTF1 | Rucaparib | OCI-C5x (clear cell) | 3
48.4 (active) | TTF1 | Rucaparib | OCI-P5x (serous) | 1
53 (active) | TTF1 | Rucaparib | OCI-P5x (serous) | 2
53.6 (active) | TTF1 | Rucaparib | OCI-P5x (serous) | 3
33.8 (active) | TTF1 | Vehicle | OCI-C5x (clear cell) | 1
28.8 (active) | TTF1 | Vehicle | OCI-C5x (clear cell) | 2
33.8 (active) | TTF1 | Vehicle | OCI-C5x (clear cell) | 3
50.1 (active) | TTF1 | Vehicle | OCI-P5x (serous) | 1
49.5 (active) | TTF1 | Vehicle | OCI-P5x (serous) | 2
47.5 (active) | TTF1 | Vehicle | OCI-P5x (serous) | 3
56.4 (active) | LMTK2 | Rucaparib | OCI-C5x (clear cell) | 1
64.3 (active) | LMTK2 | Rucaparib | OCI-C5x (clear cell) | 2
58.3 (active) | LMTK2 | Rucaparib | OCI-C5x (clear cell) | 3
81.7 | LMTK2 | Rucaparib | OCI-P5x (serous) | 1
102 | LMTK2 | Rucaparib | OCI-P5x (serous) | 2
83.6 | LMTK2 | Rucaparib | OCI-P5x (serous) | 3
47.9 (active) | LMTK2 | Vehicle | OCI-C5x (clear cell) | 1
50.4 (active) | LMTK2 | Vehicle | OCI-C5x (clear cell) | 2
46.4 (active) | LMTK2 | Vehicle | OCI-C5x (clear cell) | 3
97 | LMTK2 | Vehicle | OCI-P5x (serous) | 1
80.3 | LMTK2 | Vehicle | OCI-P5x (serous) | 2
72.2 (active) | LMTK2 | Vehicle | OCI-P5x (serous) | 3
57.1 (active) | TBXT | Rucaparib | OCI-C5x (clear cell) | 1
59.2 (active) | TBXT | Rucaparib | OCI-C5x (clear cell) | 2
39.7 (active) | TBXT | Rucaparib | OCI-C5x (clear cell) | 3
52.4 (active) | TBXT | Rucaparib | OCI-P5x (serous) | 1
48.6 (active) | TBXT | Rucaparib | OCI-P5x (serous) | 2
69.8 (active) | TBXT | Rucaparib | OCI-P5x (serous) | 3
44 (active) | TBXT | Vehicle | OCI-C5x (clear cell) | 1
43.1 (active) | TBXT | Vehicle | OCI-C5x (clear cell) | 2
33.4 (active) | TBXT | Vehicle | OCI-C5x (clear cell) | 3
75.3 (active) | TBXT | Vehicle | OCI-P5x (serous) | 1
73.3 (active) | TBXT | Vehicle | OCI-P5x (serous) | 2
47.8 (active) | TBXT | Vehicle | OCI-P5x (serous) | 3

An excerpt from the list above:
viability, normalised (%) | target | rucaparib or vehicle | cell line | technical replicate
52.7 (active) | PSMC2 | Rucaparib | OCI-C5x (clear cell) | 2
51.4 (active) | PSMC2 | Rucaparib | OCI-C5x (clear cell) | 3
31.9 (active) | PSMC2 | Rucaparib | OCI-P5x (serous) | 1
38.3 (active) | PSMC2 | Rucaparib | OCI-P5x (serous) | 2
41.7 (active) | PSMC2 | Rucaparib | OCI-P5x (serous) | 3
33.7 (active) | PSMC2 | Vehicle | OCI-C5x (clear cell) | 1
29.1 (active) | PSMC2 | Vehicle | OCI-C5x (clear cell) | 2
24.7 (active) | PSMC2 | Vehicle | OCI-C5x (clear cell) | 3
41.3 (active) | PSMC2 | Vehicle | OCI-P5x (serous) | 1
37.9 (active) | PSMC2 | Vehicle | OCI-P5x (serous) | 2
50.1 (active) | PSMC2 | Vehicle | OCI-P5x (serous) | 3
47.5 (active) | ALK | Rucaparib | OCI-C5x (clear cell) | 1
